According to the supplement of paper PMC4604168 (melanoma cell lines):
The other results are listed elsewhere or left out. Single values are uncertain, as repeats are few or missing.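 Imaging used 1,536-well plates; nuclei positive for cleaved PARP by antibody were divided by total DNA-stained nuclei to yield the apoptosis fraction. Doses for screening kept most cells viable, and cell lines differ markedly in resting and induced cleaved-PARP levels.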

Key:
Test in all cases: cleaved PARP positive nuclei fraction relative to DMSO control; melanoma cells; higher = more apoptosis
Conditions in all cases: library dose: low library concentration; 72 h
501Mel = system: 501Mel
A101D = system: A101D
A2058 = system: A2058
A375 = system: A375
C32 = system: C32
CBRC013 = system: CBRC013 (line from a melanoma biopsy)
CBRC014 = system: CBRC014 (line from a melanoma biopsy)
CBRC016 = system: CBRC016 (line from a melanoma biopsy)
CBRC017 = system: CBRC017 (line from a melanoma biopsy)

SMILES | cleaved PARP positive nuclei fraction (501Mel) | cleaved PARP positive nuclei fraction (A101D) | cleaved PARP positive nuclei fraction (A2058) | cleaved PARP positive nuclei fraction (A375) | cleaved PARP positive nuclei fraction (C32) | cleaved PARP positive nuclei fraction (CBRC013) | cleaved PARP positive nuclei fraction (CBRC014) | cleaved PARP positive nuclei fraction (CBRC016) | cleaved PARP positive nuclei fraction (CBRC017)
Cn1cncc1[C@@](N)(c1ccc(Cl)cc1)c1ccc2c(c1)c(-c1cccc(Cl)c1)cc(=O)n2C [tipifarnib] + O=C1NC(=O)/C(=C/c2ccc(-c3ccc(F)cc3O)o2)S1 [AS252424] (first compound 0.01 µM, partner dose 1 µM) | 83.8% | 104% | 122% | 176% | 66.7% | 232% | 109% | 80.4% | 90.3%
Cn1c(Nc2ccc(C(F)(F)F)cc2)nc2cc(Oc3ccnc(-c4ncc(C(F)(F)F)[nH]4)c3)ccc21 + CCN(CC)CCCCNc1ncc2cc(-c3cc(OC)cc(OC)c3)c(NC(=O)NC(C)(C)C)nc2n1 [PD173074] (first compound 0.08 µM, partner dose 0.1 µM) | 265% | 129% | 232% | 59.9% | 175% | 67.1% | 97.8% | 169% | 45.6%
C#Cc1cccc(Nc2ncnc3cc(OCCOC)c(OCCOC)cc23)c1 [erlotinib] + O=C1NC(=O)/C(=C/c2ccc(-c3ccc(F)cc3O)o2)S1 [AS252424] (first compound 0.8 µM, partner dose 1 µM) | 152% | 108% | 196% | 105% | 64% | 84.7% | 112% | 118% | 115%
C[C@]1(c2nc3c(C(N)=O)cccc3[nH]2)CCCN1 [Veliparib] + COc1cc2ncnc(Nc3ccc(Oc4ccccc4)cc3)c2cc1OC [SrcI1] (first compound 1.4 µM, partner dose 2 µM) | 78.4% | 246% | 198% | 316% | 71% | 166% | 88.1% | 50% | 136%
CO[C@@H]1[C@H](N(C)C(=O)c2ccccc2)C[C@H]2O[C@]1(C)n1c3ccccc3c3c4c(c5c6ccccc6n2c5c31)C(=O)NC4 [Midostaurin] + COC(=O)c1sccc1S(=O)(=O)Nc1ccc(Nc2ccccc2)cc1OC [GSK0660] (first compound 0.08 µM, partner dose 1 µM) | 66.5% | 22.5% | 107% | 206% | 160% | 103% | 87.8% | 67.2% | 99.6%
Cc1cc(N2CCOCC2)cc2[nH]c(-c3c(NC[C@@H](O)c4cccc(Cl)c4)cc[nH]c3=O)nc12 + O=C(O)C(=O)Nc1sc2c(c1C(=O)O)CCNC2 [TCS401] (first compound 0.2 µM, partner dose 1.66667 µM) | 233% | 304% | 52.2% | 192% | 43.1% | 786% | 79.9% | 60.2% | 63.1%
Cc1cc(N2CCOCC2)cc2[nH]c(-c3c(NC[C@@H](O)c4cccc(Cl)c4)cc[nH]c3=O)nc12 + CCN(CC)CCCCNc1ncc2cc(-c3cc(OC)cc(OC)c3)c(NC(=O)NC(C)(C)C)nc2n1 [PD173074] (first compound 0.2 µM, partner dose 0.1 µM) | 282% | 113% | 158% | 127% | 157% | 77.9% | 92.3% | 80.7% | 84.2%
Nc1cccc2c1CN(C1CCC(=O)NC1=O)C2=O (stereo not drawn) [lenalidomide] + O=C(Nc1ccccc1)c1cc([N+](=O)[O-])ccc1Cl [GW9662] (first compound 1 µM, partner dose 2 µM) | 72.4% | 64.1% | 65.2% | 365% | 53.9% | 87% | 96.6% | 62.5% | 86%
NC(=O)Nc1cc(-c2cccc(F)c2)sc1C(=O)N[C@H]1CCCNC1 + COc1cc(N2CCC(N3CCN(C)CC3)CC2)ccc1Nc1ncc(Cl)c(Nc2ccccc2S(=O)(=O)C(C)C)n1 [NVP-TAE684] (first compound 0.02 µM, partner dose 0.08 µM) | 80.2% | 135% | 84.1% | 96.7% | 162% | 96.6% | 128% | 92.8% | 101%
CC(C)(C)c1cnc(CSc2cnc(NC(=O)C3CCNCC3)s2)o1 + O=C(O)C(=O)Nc1sc2c(c1C(=O)O)CCNC2 [TCS401] (first compound 0.01 µM, partner dose 1.66667 µM) | 89.8% | 114% | 73% | 553% | 126% | 208% | 106% | 49% | 66.7%
C=CCn1c(=O)c2cnc(Nc3ccc(N4CCN(C)CC4)cc3)nc2n1-c1cccc(C(C)(C)O)n1 + COc1cc2ncnc(Nc3ccc(Oc4ccccc4)cc3)c2cc1OC [SrcI1] (first compound 0.02 µM, partner dose 2 µM) | 147% | 296% | 71.9% | 69.1% | 51% | 92.6% | 324% | 169% | 96.5%
C[C@@H]1CCN(C(=O)CC#N)C[C@@H]1N(C)c1ncnc2[nH]ccc12 + CCc1ccc(CCOc2ccc(CC3SC(=O)NC3=O)cc2)nc1 [pioglitazone] (first compound 1 µM, partner dose 2 µM) | 69.1% | 103% | 98.8% | 79.3% | 87.9% | 246% | 92.8% | 95.9% | 78.9%

Two entries from above in another layout:

| SMILES | cleaved PARP positive nuclei fraction (501Mel) | cleaved PARP positive nuclei fraction (A101D) | cleaved PARP positive nuclei fraction (A2058) | cleaved PARP positive nuclei fraction (A375) | cleaved PARP positive nuclei fraction (C32) | cleaved PARP positive nuclei fraction (CBRC013) | cleaved PARP positive nuclei fraction (CBRC014) | cleaved PARP positive nuclei fraction (CBRC016) | cleaved PARP positive nuclei fraction (CBRC017) |
| --- | --- | --- | --- | --- | --- | --- | --- | --- | --- |
| Cn1cncc1[C@@](N)(c1ccc(Cl)cc1)c1ccc2c(c1)c(-c1cccc(Cl)c1)cc(=O)n2C [tipifarnib] + O=C1NC(=O)/C(=C/c2ccc(-c3ccc(F)cc3O)o2)S1 [AS252424] (first compound 0.01 µM, partner dose 1 µM) | 83.8% | 104% | 122% | 176% | 66.7% | 232% | 109% | 80.4% | 90.3% |
| Cn1c(Nc2ccc(C(F)(F)F)cc2)nc2cc(Oc3ccnc(-c4ncc(C(F)(F)F)[nH]4)c3)ccc21 + CCN(CC)CCCCNc1ncc2cc(-c3cc(OC)cc(OC)c3)c(NC(=O)NC(C)(C)C)nc2n1 [PD173074] (first compound 0.08 µM, partner dose 0.1 µM) | 265% | 129% | 232% | 59.9% | 175% | 67.1% | 97.8% | 169% | 45.6% |
